Source: patent publication US12427210B2 (priority 2019, dated 2025)

What was measured:
[1] = general procedure: Fmoc solid-phase peptide synthesis; Fmoc-Cys(Trt)-WANG Tentagel; settings: whole synthesis, scale 50 μmol, thioether ring; run 2
[2] = general procedure: Fmoc solid-phase peptide synthesis; polystyrene (PS or DEG cross-linked), ChemMatrix (CM) or TentaGel (TG); linkers trityl, wang and rink amide; settings: for step yield: late stage modification step
[3] = general procedure: Fmoc solid-phase peptide synthesis; trityl resin; settings: whole synthesis, scale 50 μmol
[4] = general procedure: Fmoc solid-phase peptide synthesis; Rink amide resin; settings: whole synthesis, scale 50 μmol

Hex-[Cys(tMeBn(DOTA-AET))-Pro-Pro-Thr-Gln-Phe-Cys]-OH
isolated mass [1]: 11.0 mg
isolated yield ([2]; whole synthesis, overall, scale of the general procedure 50 μmol and 100 μmol, thioether ring): 27.8% overall yield
isolated yield ([2]; whole synthesis, scale 50 μmol, thioether ring): 15%
isolated mass ([2]; whole synthesis, scale 50 μmol, thioether ring, run 1): 20.44 mg

Hex-[Cys(tMeBn(DOTA-PP))-Pro-Pro-Thr-Gln-Phe-Cys]-Asp-NH2
conjugation yield ([2]; conjugation step, on peptide intermediate, thioether ring): 85%

Hex-[Cys(tMeBn(EuDOTA-AET))-Pro-Pro-Thr-Gln-Phe-Cys]-OH
step yield ([2]; thioether ring): 83%

Hex-[Cys(tMeBn(EuDOTA-PP))-Pro-Pro-Thr-Gln-Phe-Cys]-Asp-NH2
step yield ([2]; thioether ring): 79.3%

Hex-[Cys(tMeBn(GaDOTA-AET))-Pro-Pro-Thr-Gln-Phe-Cys]-OH
step yield ([2]; thioether ring): 51%

Hex-[Cys(tMeBn(GaDOTA-PP))-Pro-Pro-Thr-Gln-Phe-Cys]-Asp-NH2
step yield ([2]; thioether ring): 69.3%

Hex-[Cys(tMeBn(H-AET))-Pro-Pro-Thr-Gln-Phe-Cys]-OH
isolated yield ([2]; whole synthesis, on resin loading, scale 50 μmol, run 1): 32.8%
isolated yield ([2]; whole synthesis, on resin loading, scale 50 μmol, run 2): 35.9%
isolated mass ([3]; run 1): 17.8 mg
isolated mass ([3]; run 2): 19.47 mg

Hex-[Cys(tMeBn(H-PP))-Pro-Pro-Thr-Gln-Phe-Cys]-Asp-NH2
isolated mass ([4]; run 1): 15.3 mg
isolated mass ([4]; run 2): 17.2 mg
isolated yield ([2]; whole synthesis, on resin loading, scale of the general procedure 50 μmol and 100 μmol, run 1): 25.3%
isolated yield ([2]; whole synthesis, on resin loading, scale of the general procedure 50 μmol and 100 μmol, run 2): 28.4%

Hex-[Cys(tMeBn(InDOTA-AET))-Pro-Pro-Thr-Gln-Phe-Cys]-OH
step yield ([2]; thioether ring): 81%

Hex-[Cys(tMeBn(InDOTA-PP))-Pro-Pro-Thr-Gln-Phe-Cys]-Asp-NH2
step yield [2]: 68.1%

Hex-[Cys(tMeBn(LuDOTA-AET))-Pro-Pro-Thr-Gln-Phe-Cys]-OH
step yield ([2]; thioether ring): 82%

Hex-[Cys(tMeBn(LuDOTA-PP))-Pro-Pro-Thr-Gln-Phe-Cys]-Asp-NH2
step yield ([2]; thioether ring): 60.1%

Hex-[Cys-(tMeBn(CuDOTA-AET))-Pro-Pro-Thr-Gln-Phe-Cys]-OH
step yield ([2]; thioether ring): 88%

Hex-[Cys-(tMeBn(ZnDOTA-AET))-Pro-Pro-Thr-Gln-Phe-Cys]-OH
step yield ([2]; thioether ring): 77%
